Data as given in PubChem BioAssay AID1224826 (NIAID, 2016).

- Assay: 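Knock-downs that raise or lower Tnf reporter signal after endotoxin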 (primary screen)
- Cell system: RAW264.7 G9 macrophages from mouse bearing reporters for p65 (GFP) and the Tnf promoter (mCherry)
- Reagent: siRNA pool against mouse genes, 100 nM
- Duration: 16 h of LPS stimulation, after 2 days of siRNA transfection
- Challenge: bacterial lipopolysaccharide (Salmonella minnesota R595), 10 ng/ml
- Measurement: 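Nuclear mCherry signal of the Tnf promoter reporter measured by imaging after background removal, scaled to each plate median and turned into robust z-scores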
- Scale: Tnf reporter robust z-score: higher = stronger Tnf promoter reporter signal after LPS; Tnf reporter intensity: higher = stronger Tnf promoter reporter signal
- Active means: 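a well counts as active at a score of -1.3 or below (Tlr4 knock-down control median) or above 3 (raised signal); controls and wells holding fewer than 50 cells are excluded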
- Calls: active = Tnf reporter clearly lowered or raised; inactive = no clear change in Tnf reporter
In all, the deposit lists about 17,000 reagents; below is a random part of them. In the full data, about 1,110 (6.6%) got an active call. 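Active means lowered or raised reporter signal; replicate intensities are raw and not normalised per plate.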

The first 3 records, ahead of the listing:
target gene	Tnf reporter robust z-score	fewer than 50 cells in well	Tnf reporter intensity, replicate 1	Tnf reporter intensity, replicate 2	Outcome
Frmd5		fewer than 50 cells per well; well left out of calls	142	28.7	inactive
Krt88	-0.59	enough cells in well	185	61.5	inactive
Dpf1	-0.78	enough cells in well	178	72.1	inactive

Results, from the first entry:
target gene	Tnf reporter robust z-score	fewer than 50 cells in well	Tnf reporter intensity, replicate 1	Tnf reporter intensity, replicate 2	Outcome
Frmd5		fewer than 50 cells per well; well left out of calls	142	28.7	inactive
Krt88	-0.59	enough cells in well	185	61.5	inactive
Dpf1	-0.78	enough cells in well	178	72.1	inactive
Or52e7	-0.21	enough cells in well	92.4	108	inactive
Lancl1	-0.23	enough cells in well	235	208	inactive
Slc5a11		fewer than 50 cells per well; well left out of calls	85.4	61.3	inactive
Yipf3	-1.19	enough cells in well	77.4	87.3	inactive
Thsd1	0.03	enough cells in well	117	95.4	inactive
2210408I21Rik	1.81	enough cells in well	245	34.1	inactive
Rbck1	1.13	enough cells in well	226	242	inactive
Pim1	0.07	enough cells in well	244	125	inactive
Siglec1		fewer than 50 cells per well; well left out of calls	140	37	inactive
Serpinb10	3.62	enough cells in well	252	195	active
Thap1	1.51	enough cells in well	175	93.1	inactive
Tax1bp1	1	enough cells in well	331	167	inactive
Tmprss2		fewer than 50 cells per well; well left out of calls	11.5	0	inactive
Etfa	-0.11	enough cells in well	246	194	inactive
T	-0.7	enough cells in well	225	155	inactive
G6pd2	-2.06	enough cells in well	86.6	34.1	active
Cts6	-0.11	enough cells in well	139	210	inactive
Ccnd3	1.49	enough cells in well	377	306	inactive
Brinp3	-0.01	enough cells in well	213	198	inactive
Lgr4	0.41	enough cells in well	230	362	inactive
Deptor	1.25	enough cells in well	300	203	inactive
